Data on eight molecules can be found in publication PMC10312976.

The chains behind the UniProt entries cited, without tags or fusion partners.
UniProt P26599: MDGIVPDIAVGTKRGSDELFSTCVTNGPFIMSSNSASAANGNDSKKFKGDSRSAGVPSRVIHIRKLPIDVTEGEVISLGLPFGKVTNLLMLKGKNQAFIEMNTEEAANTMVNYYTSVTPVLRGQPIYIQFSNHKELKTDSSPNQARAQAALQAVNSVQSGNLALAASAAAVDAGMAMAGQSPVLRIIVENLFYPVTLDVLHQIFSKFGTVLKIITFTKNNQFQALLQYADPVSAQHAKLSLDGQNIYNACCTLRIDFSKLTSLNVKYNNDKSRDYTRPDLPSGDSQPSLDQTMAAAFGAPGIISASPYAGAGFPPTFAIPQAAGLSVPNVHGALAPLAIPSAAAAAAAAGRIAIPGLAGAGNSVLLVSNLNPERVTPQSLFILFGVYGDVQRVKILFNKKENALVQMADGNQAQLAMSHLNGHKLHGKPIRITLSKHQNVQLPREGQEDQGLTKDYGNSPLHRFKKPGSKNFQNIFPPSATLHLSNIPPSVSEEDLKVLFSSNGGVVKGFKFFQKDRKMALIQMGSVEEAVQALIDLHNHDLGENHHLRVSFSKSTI

Like-named read-outs stand apart in the source and are kept apart here. No constants are given. Whether binding was seen depends on the method and setting. Binding seen in cells or lysates may run through a third protein. Here binding means that the protein was enriched with, or labelled near, the bait; the list need not be complete. Sequences can lack the tags named with a protein.

Experiment in all cases: affinity purification with mass spectrometry; lysate (1 ml of 1 mg/ml) of HEK293T cells transfected with Dbr1-FLAG, anti-FLAG M2 magnetic beads, eluted with 2x SDS-PAGE loading dye; un-transfected HEK293T cells as control; three dishes each
Experiment [1] addresses T1, Dbr1-FLAG (human) (UniProt Q9UK59).
T1 sequence: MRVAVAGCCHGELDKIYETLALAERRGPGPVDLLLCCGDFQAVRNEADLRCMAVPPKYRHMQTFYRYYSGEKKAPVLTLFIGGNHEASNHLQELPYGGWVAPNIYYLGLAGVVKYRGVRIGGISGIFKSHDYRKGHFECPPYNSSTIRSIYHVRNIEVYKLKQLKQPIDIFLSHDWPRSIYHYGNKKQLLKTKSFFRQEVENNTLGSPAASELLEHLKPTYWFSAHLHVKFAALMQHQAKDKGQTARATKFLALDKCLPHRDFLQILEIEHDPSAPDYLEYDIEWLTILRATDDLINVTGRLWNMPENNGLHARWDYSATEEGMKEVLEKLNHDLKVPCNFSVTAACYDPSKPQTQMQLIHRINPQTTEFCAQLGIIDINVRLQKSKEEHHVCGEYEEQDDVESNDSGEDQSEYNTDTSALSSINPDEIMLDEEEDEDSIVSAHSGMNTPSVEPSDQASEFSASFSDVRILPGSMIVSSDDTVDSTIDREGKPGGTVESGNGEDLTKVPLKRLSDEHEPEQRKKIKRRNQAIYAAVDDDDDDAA

The target in experiment [2] is T2, Dbr1-FLAG (human), Q9UK59.
T2 chain: T1 sequence
As to conditions: remark: other sources report otherwise.

In experiment [3] the target is T1, Dbr1-FLAG (human). This is another data set of the same source.

For the molecule PTBP1 (from UniProt P26599 1-557), the binding result in the experiment with Dbr1-FLAG (human) [1] is given as “binds”. Same read-out and setting: the same measure for Cwf19L, the human homolog of yeast Drn1: “binds”.

B1: PRP19, Q9UMS4 1-504 (protein)
chain: MSLICSISNEVPEHPCVSPVSNHVYERRLIEKYIAENGTDPINNQPLSEEQLIDIKVAHPIRPKPPSATSIPAILKALQDEWDAVMLHSFTLRQQLQTTRQELSHALYQHDAACRVIARLTKEVTAAREALATLKPQAGLIVPQAVPSSQPSVVGAGEPMDLGELVGMTPEIIQKLQDKATVLTTERKKRGKTVPEELVKPEELSKYRQVASHVGLHSASIPGILALDLCPSDTNKILTGGADKNVVVFDKSSEQILATLKGHTKKVTSVVFHPSQDLVFSASPDATIRIWSVPNASCVQVVRAHESAVTGLSLHATGDYLLSSSDDQYWAFSDIQTGRVLTKVTDETSGCSLTCAQFHPDGLIFGTGTMDSQIKIWDLKERTNVANFPGHSGPITSIAFSENGYYLATAADDSSVKLWDLRKLKNFKTLQLDNNFEVKSLIFDQSGTYLALGGTDVQIYICKQWTEILHFTEHSGLTTGVAFGHHAKFIASTGMDRSLKFYSL
For the molecule B1, the binding entry in experiment [2] is reported as “binds”.

B2: XAB2 (protein, UniProt Q9HCS7 1-855)
chain: MVVMARLSRPERPDLVFEEEDLPYEEEIMRNQFSVKCWLRYIEFKQGAPKPRLNQLYERALKLLPCSYKLWYRYLKARRAQVKHRCVTDPAYEDVNNCHERAFVFMHKMPRLWLDYCQFLMDQGRVTHTRRTFDRALRALPITQHSRIWPLYLRFLRSHPLPETAVRGYRRFLKLSPESAEEYIEYLKSSDRLDEAAQRLATVVNDERFVSKAGKSNYQLWHELCDLISQNPDKVQSLNVDAIIRGGLTRFTDQLGKLWCSLADYYIRSGHFEKARDVYEEAIRTVMTVRDFTQVFDSYAQFEESMIAAKMETASELGREEEDDVDLELRLARFEQLISRRPLLLNSVLLRQNPHHVHEWHKRVALHQGRPREIINTYTEAVQTVDPFKATGKPHTLWVAFAKFYEDNGQLDDARVILEKATKVNFKQVDDLASVWCQCGELELRHENYDEALRLLRKATALPARRAEYFDGSEPVQNRVYKSLKVWSMLADLEESLGTFQSTKAVYDRILDLRIATPQIVINYAMFLEEHKYFEESFKAYERGISLFKWPNVSDIWSTYLTKFIARYGGRKLERARDLFEQALDGCPPKYAKTLYLLYAQLEEEWGLARHAMAVYERATRAVEPAQQYDMFNIYIKRAAEIYGVTHTRGIYQKAIEVLSDEHAREMCLRFADMECKLGEIDRARAIYSFCSQICDPRTTGAFWQTWKDFEVRHGNEDTIKEMLRIRRSVQATYNTQVNFMASQMLKVSGSATGTVSDLAPGQSGMDDMKLLEQRAEQLAAEAERDQPLRAQSKILFVRSDASREELAELAQQVNPEEIQLGEDEDEDEMDLEPNEVRLEQQSVPAAVFGSLKED
With B2, the binding result in the experiment with Dbr1-FLAG (human) [3] is “binds”.

B3: RBM22 (protein, UniProt Q9NW64 1-420)
chain: MATSLGSNTYNRQNWEDADFPILCQTCLGENPYIRMTKEKYGKECKICARPFTVFRWCPGVRMRFKKTEVCQTCSKLKNVCQTCLLDLEYGLPIQVRDAGLSFKDDMPKSDVNKEYYTQNMEREISNSDGTRPVGMLGKATSTSDMLLKLARTTPYYKRNRPHICSFWVKGECKRGEECPYRHEKPTDPDDPLADQNIKDRYYGINDPVADKLLKRASTMPRLDPPEDKTITTLYVGGLGDTITETDLRNHFYQFGEIRTITVVQRQQCAFIQFATRQAAEVAAEKSFNKLIVNGRRLNVKWGRSQAARGKEKEKDGTTDSGIKLEPVPGLPGALPPPPAAEEEASANYFNLPPSGPPAVVNIALPPPPGIAPPPPPGFGPHMFHPMGPPPPFMRAPGPIHYPSQDPQRMGAHAGKHSSP
With B3, the binding result in the experiment with Dbr1-FLAG (human) [3] was “binds”.

B4: SRSF7 (protein, UniProt Q16629 1-238)
chain: MSRYGRYGGETKVYVGNLGTGAGKGELERAFSYYGPLRTVWIARNPPGFAFVEFEDPRDAEDAVRGLDGKVICGSRVRVELSTGMPRRSRFDRPPARRPFDPNDRCYECGEKGHYAYDCHRYSRRRRSRSRSRSHSRSRGRRYSRSRSRSRGRRSRSASPRRSRSISLRRSRSASLRRSRSGSIKGSRYFQSPSRSRSRSRSISRPRSSRSKSRSPSPKRSRSPSGSPRRSASPERMD
Turning to B4, in the experiment with Dbr1-FLAG (human) [3], the binding entry is “binds”.

B5: PLRG1 (protein, UniProt O43660 1-514)
chain: MVEEVQKHSVHTLVFRSLKRTHDMFVADNGKPVPLDEESHKRKMAIKLRNEYGPVLHMPTSKENLKEKGPQNATDSYVHKQYPANQGQEVEYFVAGTHPYPPGPGVALTADTKIQRMPSESAAQSLAVALPLQTKADANRTAPSGSEYRHPGASDRPQPTAMNSIVMETGNTKNSALMAKKAPTMPKPQWHPPWKLYRVISGHLGWVRCIAVEPGNQWFVTGSADRTIKIWDLASGKLKLSLTGHISTVRGVIVSTRSPYLFSCGEDKQVKCWDLEYNKVIRHYHGHLSAVYGLDLHPTIDVLVTCSRDSTARIWDVRTKASVHTLSGHTNAVATVRCQAAEPQIITGSHDTTIRLWDLVAGKTRVTLTNHKKSVRAVVLHPRHYTFASGSPDNIKQWKFPDGSFIQNLSGHNAIINTLTVNSDGVLVSGADNGTMHLWDWRTGYNFQRVHAAVQPGSLDSESGIFACAFDQSESRLLTAEADKTIKVYREDDTATEETHPVSWKPEIIKRKRF
As for B5, the binding result with Dbr1-FLAG (human) [3] is “binds”.

B6: HNRNPL (protein, UniProt P14866 1-589)
chain: MSRRLLPRAEKRRRRLEQRQQPDEQRRRSGAMVKMAAAGGGGGGGRYYGGGSEGGRAPKRLKTDNAGDQHGGGGGGGGGAGAAGGGGGGENYDDPHKTPASPVVHIRGLIDGVVEADLVEALQEFGPISYVVVMPKKRQALVEFEDVLGACNAVNYAADNQIYIAGHPAFVNYSTSQKISRPGDSDDSRSVNSVLLFTILNPIYSITTDVLYTICNPCGPVQRIVIFRKNGVQAMVEFDSVQSAQRAKASLNGADIYSGCCTLKIEYAKPTRLNVFKNDQDTWDYTNPNLSGQGDPGSNPNKRQRQPPLLGDHPAEYGGPHGGYHSHYHDEGYGPPPPHYEGRRMGPPVGGHRRGPSRYGPQYGHPPPPPPPPEYGPHADSPVLMVYGLDQSKMNCDRVFNVFCLYGNVEKVKFMKSKPGAAMVEMADGYAVDRAITHLNNNFMFGQKLNVCVSKQPAIMPGQSYGLEDGSCSYKDFSESRNNRFSTPEQAAKNRIQHPSNVLHFFNAPLEVTEENFFEICDELGVKRPSSVKVFSGKSERSSSGLLEWESKSDALETLGFLNHYQMKNPNGPYPYTLKLCFSTAQHAS
B6: in the experiment with Dbr1-FLAG (human) [3], the binding entry is on record as “binds”.
